# This is one part of the list. Small differences around the control level are noise.
# The chains behind the UniProt entries cited, without tags or fusion partners. Where a name states a change or a piece, a line headed by the entry shows the natural chain unless it says otherwise.
# UniProt Q8N141: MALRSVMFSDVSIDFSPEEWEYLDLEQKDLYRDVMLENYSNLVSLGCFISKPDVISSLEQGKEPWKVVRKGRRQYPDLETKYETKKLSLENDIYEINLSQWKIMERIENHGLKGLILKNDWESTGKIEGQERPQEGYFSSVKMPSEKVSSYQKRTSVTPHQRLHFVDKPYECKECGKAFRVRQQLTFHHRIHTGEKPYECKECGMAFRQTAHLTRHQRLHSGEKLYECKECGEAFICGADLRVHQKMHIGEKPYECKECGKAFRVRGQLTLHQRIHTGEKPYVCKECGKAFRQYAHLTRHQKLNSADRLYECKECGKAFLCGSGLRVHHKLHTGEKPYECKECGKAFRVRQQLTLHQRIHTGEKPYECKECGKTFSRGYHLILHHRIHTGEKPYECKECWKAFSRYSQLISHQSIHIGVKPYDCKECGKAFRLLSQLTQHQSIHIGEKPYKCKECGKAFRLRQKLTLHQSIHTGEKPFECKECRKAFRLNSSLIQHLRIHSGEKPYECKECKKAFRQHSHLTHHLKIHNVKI
# UniProt Q86WT1: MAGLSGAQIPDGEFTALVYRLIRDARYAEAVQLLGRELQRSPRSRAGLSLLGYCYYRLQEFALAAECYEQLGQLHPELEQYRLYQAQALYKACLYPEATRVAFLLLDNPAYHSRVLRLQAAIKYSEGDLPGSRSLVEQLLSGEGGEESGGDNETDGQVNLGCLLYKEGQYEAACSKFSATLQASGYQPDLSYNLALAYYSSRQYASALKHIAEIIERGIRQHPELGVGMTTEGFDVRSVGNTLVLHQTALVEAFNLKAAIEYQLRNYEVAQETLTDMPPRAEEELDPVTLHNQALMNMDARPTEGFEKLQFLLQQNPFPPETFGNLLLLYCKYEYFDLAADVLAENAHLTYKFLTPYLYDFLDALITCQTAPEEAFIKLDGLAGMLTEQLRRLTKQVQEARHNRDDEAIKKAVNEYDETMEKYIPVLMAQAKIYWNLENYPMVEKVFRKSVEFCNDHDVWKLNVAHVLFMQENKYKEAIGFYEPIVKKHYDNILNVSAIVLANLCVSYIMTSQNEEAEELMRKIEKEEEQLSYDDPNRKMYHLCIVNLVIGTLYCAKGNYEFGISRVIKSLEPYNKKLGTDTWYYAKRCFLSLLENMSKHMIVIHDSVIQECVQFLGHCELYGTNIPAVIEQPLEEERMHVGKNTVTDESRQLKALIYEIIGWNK
# UniProt Q8IUW3: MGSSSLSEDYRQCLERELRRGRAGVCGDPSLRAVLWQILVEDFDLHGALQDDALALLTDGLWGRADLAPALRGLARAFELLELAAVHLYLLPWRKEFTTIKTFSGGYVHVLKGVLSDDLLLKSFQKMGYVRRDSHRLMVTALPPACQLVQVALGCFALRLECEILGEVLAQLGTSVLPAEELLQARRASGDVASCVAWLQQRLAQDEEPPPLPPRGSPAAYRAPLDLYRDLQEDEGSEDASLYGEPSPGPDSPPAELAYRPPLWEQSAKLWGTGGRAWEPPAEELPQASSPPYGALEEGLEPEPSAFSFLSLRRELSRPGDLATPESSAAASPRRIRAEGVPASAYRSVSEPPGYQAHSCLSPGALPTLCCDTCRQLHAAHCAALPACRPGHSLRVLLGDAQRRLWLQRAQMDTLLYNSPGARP
# UniProt Q8IWS0: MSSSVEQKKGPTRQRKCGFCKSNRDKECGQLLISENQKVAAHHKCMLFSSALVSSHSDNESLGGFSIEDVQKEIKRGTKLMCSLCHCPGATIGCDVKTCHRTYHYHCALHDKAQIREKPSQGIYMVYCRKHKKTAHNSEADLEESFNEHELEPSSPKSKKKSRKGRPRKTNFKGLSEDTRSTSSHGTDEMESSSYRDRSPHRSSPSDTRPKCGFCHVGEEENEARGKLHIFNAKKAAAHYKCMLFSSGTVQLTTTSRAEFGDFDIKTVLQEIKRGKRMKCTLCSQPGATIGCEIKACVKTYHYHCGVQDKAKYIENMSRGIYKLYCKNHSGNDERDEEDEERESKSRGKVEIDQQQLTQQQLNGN
# UniProt Q8IZ69: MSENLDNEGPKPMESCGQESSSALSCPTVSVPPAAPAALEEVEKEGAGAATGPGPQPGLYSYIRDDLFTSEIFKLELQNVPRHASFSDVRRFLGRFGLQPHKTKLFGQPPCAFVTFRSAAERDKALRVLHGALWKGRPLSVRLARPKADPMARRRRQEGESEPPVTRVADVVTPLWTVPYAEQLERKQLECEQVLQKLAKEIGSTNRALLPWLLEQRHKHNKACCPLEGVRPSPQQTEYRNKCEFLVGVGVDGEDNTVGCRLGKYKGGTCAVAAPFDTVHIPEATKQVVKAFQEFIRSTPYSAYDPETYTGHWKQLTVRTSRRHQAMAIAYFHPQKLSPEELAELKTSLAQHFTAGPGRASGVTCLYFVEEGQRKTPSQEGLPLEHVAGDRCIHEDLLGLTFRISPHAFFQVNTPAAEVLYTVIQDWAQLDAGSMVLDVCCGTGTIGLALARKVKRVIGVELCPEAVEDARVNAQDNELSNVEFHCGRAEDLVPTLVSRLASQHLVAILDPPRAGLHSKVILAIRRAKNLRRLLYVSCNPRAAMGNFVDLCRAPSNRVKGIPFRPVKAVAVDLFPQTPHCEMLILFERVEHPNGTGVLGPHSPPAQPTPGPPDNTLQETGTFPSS
# UniProt Q8IVI9: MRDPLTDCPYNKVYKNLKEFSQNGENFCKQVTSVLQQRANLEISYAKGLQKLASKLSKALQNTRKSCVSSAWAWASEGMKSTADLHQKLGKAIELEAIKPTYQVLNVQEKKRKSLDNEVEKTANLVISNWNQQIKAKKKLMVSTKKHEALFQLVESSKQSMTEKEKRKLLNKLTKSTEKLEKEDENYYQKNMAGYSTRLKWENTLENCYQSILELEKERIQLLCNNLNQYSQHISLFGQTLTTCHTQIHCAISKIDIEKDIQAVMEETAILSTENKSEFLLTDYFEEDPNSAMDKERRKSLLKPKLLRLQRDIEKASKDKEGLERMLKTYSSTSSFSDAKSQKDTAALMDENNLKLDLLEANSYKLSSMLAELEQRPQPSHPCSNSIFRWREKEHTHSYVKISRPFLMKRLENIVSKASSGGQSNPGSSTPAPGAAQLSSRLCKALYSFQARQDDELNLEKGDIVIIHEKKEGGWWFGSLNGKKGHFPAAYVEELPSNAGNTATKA
# UniProt Q8IWV8: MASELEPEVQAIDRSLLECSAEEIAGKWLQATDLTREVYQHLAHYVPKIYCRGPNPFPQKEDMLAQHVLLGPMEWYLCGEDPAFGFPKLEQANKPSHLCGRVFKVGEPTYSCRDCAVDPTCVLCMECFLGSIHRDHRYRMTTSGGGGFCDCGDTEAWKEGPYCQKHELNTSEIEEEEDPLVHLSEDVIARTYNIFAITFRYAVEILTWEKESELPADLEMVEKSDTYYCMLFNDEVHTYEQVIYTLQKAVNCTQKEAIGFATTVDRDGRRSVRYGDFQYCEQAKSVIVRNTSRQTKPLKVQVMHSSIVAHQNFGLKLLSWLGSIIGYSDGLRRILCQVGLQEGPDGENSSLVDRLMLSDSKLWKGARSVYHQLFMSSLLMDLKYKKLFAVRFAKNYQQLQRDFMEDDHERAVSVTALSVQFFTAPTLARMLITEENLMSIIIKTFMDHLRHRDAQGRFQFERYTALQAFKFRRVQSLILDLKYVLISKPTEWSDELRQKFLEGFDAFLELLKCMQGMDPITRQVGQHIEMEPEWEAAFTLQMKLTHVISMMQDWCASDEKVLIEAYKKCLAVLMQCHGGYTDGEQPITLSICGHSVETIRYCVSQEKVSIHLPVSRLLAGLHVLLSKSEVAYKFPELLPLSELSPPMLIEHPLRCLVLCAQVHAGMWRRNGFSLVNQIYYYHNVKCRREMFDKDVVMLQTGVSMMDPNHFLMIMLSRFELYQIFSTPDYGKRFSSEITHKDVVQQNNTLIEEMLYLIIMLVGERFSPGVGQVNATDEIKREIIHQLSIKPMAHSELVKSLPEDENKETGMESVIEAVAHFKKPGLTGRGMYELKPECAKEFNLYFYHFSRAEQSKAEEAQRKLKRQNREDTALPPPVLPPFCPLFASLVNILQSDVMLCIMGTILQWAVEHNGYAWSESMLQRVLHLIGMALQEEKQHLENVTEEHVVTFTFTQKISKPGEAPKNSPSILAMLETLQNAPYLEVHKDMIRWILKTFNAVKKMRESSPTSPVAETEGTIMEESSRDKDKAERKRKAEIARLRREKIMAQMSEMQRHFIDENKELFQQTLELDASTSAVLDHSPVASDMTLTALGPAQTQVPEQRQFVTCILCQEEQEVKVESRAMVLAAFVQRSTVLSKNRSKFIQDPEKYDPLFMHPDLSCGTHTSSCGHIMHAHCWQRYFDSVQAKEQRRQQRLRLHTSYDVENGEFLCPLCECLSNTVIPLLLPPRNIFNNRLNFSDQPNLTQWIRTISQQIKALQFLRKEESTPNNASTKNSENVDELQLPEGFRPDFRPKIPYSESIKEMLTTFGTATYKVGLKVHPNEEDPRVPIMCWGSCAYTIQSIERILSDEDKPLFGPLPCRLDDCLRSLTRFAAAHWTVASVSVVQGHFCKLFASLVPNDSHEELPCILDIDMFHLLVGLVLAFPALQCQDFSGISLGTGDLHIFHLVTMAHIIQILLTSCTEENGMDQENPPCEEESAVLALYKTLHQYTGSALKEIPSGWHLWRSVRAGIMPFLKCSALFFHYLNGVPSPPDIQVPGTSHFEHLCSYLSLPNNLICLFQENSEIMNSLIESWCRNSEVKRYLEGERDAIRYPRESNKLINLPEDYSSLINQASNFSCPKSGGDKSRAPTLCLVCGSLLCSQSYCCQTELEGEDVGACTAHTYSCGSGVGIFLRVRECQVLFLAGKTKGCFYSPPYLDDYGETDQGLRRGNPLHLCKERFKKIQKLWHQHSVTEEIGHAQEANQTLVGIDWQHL
# UniProt Q8IYH5: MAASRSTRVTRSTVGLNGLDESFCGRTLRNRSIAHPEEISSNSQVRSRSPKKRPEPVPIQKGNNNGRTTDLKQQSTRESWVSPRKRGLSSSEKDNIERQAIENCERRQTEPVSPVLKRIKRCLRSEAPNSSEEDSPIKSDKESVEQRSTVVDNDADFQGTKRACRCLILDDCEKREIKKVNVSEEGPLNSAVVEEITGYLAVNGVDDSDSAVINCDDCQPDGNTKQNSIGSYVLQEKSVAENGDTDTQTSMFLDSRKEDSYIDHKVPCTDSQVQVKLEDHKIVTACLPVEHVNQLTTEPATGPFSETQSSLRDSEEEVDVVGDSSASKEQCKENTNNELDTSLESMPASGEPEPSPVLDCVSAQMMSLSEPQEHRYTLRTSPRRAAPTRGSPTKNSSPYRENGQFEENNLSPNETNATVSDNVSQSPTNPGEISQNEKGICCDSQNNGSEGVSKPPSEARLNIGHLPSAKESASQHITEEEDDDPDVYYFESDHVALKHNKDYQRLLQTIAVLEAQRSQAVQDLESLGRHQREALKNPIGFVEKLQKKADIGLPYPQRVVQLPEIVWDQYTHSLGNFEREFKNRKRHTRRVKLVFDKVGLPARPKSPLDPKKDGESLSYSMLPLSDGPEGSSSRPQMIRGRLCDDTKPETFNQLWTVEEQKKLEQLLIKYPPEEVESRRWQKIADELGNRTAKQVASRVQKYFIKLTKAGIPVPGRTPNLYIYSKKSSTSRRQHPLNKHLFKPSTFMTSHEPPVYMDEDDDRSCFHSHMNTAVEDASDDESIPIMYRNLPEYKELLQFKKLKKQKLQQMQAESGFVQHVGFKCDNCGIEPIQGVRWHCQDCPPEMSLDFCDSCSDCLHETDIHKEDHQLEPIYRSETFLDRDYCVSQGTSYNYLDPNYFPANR
# UniProt Q8IXK2: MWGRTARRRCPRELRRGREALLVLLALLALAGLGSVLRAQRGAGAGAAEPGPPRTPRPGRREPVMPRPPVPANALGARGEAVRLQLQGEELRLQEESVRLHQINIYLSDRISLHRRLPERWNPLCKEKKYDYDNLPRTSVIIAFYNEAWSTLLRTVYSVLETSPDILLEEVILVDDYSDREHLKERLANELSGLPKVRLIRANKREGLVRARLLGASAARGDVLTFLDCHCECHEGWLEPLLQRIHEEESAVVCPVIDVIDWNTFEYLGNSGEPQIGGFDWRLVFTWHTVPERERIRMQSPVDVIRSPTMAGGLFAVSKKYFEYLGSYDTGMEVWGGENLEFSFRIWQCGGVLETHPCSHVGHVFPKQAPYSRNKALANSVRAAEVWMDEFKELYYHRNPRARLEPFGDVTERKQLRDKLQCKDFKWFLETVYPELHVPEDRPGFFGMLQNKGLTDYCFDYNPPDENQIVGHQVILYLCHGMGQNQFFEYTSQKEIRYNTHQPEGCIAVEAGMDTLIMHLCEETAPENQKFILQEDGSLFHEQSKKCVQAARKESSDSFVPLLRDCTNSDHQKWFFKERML
# Compound: CN[C@@H]1C[C@H]2O[C@@](C)([C@@H]1OC)n1c3ccccc3c3c4c(c5c6ccccc6n2c5c31)C(=O)NC4 [staurosporine]
# Test: log2 fold change of tryptic peptide abundance, ligand vs vehicle (limited proteolysis) (log2 ratio); higher = more trypsin-susceptible (destabilized)
# Settings: ligand concentration: 20 uM; sample: K562 cleared lysate; digestion: 4 min, 22 C (HT-PELSA RT4min, Orbitrap Astral)
row,Target,log2 fold change
1,"UniProt Q8N141 (peptide sequence: IEGQERPQEGYFSSVK, peptide start residue: 127)",-0.491
2,"UniProt Q86WT1 (peptide sequence: EAIGFYEPIVKK, peptide start residue: 477)",-0.388
3,"UniProt Q8IUW3 (peptide sequence: GVLSDDLLLK, peptide start residue: 113)",-0.00349
4,"PHF6 (peptide sequence: TVLQEIKR, peptide start residue: 267) (UniProt Q8IWS0)",-0.189
5,"UniProt Q86WG3 (peptide sequence: SLIIVHPSWFIR, peptide start residue: 243)",0.0228
6,"TRMT2A (peptide sequence: HASFSDVR, peptide start residue: 83) (UniProt Q8IZ69)",0.255
7,"NOSTRIN (peptide sequence: NLKEFSQNGENFCK, peptide start residue: 16) (UniProt Q8IVI9)",-0.908
8,"DCP1B (peptide sequence: QLCPAIQK, peptide start residue: 289) (UniProt Q8IZD4)",0.158
9,"UBR2 (peptide sequence: KEESTPNNASTK, peptide start residue: 1262) (UniProt Q8IWV8)",-1.33
10,"ZZZ3 (peptide sequence: ADIGLPYPQR, peptide start residue: 549) (UniProt Q8IYH5)",0.345
11,"GALNT12 (peptide sequence: AAEVWMDEFK, peptide start residue: 383) (UniProt Q8IXK2)",1.09

# Part of the list above, with bars between the fields:
row | Target | log2 fold change
3 | UniProt Q8IUW3 (peptide sequence: GVLSDDLLLK, peptide start residue: 113) | -0.00349
4 | PHF6 (peptide sequence: TVLQEIKR, peptide start residue: 267) (UniProt Q8IWS0) | -0.189

# Source: the supplement of paper PMC12819154, “High-throughput peptide-centric local stability assay extends protein–ligand identification to membrane proteins, tissues and bacteria” (Nature Structural & Molecular Biology, 2025)
